This assay can be described thus: qHTS Assay for Lipid Storage Modulators in Drosophila S3 Cells.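 As to cell number change: cells counted by Cell Tracker Red CMTPX staining in the red channel.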 The note with it: BODIPY lipid droplet fluorescence, 18-24 h; for cell number change: measured here: cell count max response, cells fed with added oleic acid. In outline: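 Laser-scanning cytometry quantifies lipid droplet accumulation (500–530 nm total intensity; droplet/cell object ratio) in oleic acid-fed (400 uM added) Drosophila S3 cells treated with a concentration series. 20 uM Triacsin C defined 100% inhibition.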

Where [1] appears, read: measured here: lipid fluorescence (Fed channel) AC50, cells fed with added oleic acid.
Setting [2] is: measured here: cell number channel AC50, cells fed with added oleic acid.

Some of the results follow. Further columns of the screen follow, without active or inactive calls. Compounds called inactive in the main read-out are mostly missing here. The note in brackets gives the kind of curve behind each potency; many fits are weak.

The record followed here is PubChem BioAssay AID2685 (National Center for Advancing Translational Sciences (NCATS), 2010).

Consider `CCOC(=O)c1[nH]c(CSc2nnc(-c3ccc(OC)cc3)o2)c(C(=O)OCC)c1C`, for which the cell number change is -8.2%. Besides, the AC50 under setting [1] was 2.06 µM [rising, partial curve].
For `c1coc(Cn2c(-c3ccco3)nc3ccccc32)c1`, the cell number change amounted to 13.3%. Under setting [1], the AC50 is 7.31 µM [rising, partial curve, poor fit].
`CC(C)=CC(=O)Nc1c(C)cc(C)cc1Cl`: the cell number change is -11.4%. Besides, the AC50 under setting [1] was 4.11 µM [falling, full curve].
For the molecule `Cc1ccc(NC(=S)Nc2ccc(OC(F)F)c(Cl)c2)cc1F`, the cell number change is -49.6%. Under setting [2], the AC50 was 29.1 µM [falling, single point]. Besides, the AC50 under setting [1] was 8.2 µM [falling, partial curve].
On to `CCCOc1ccc(C2(C(=O)O)CCCC2)cc1`, for which the cell number change was -13%. Besides, under setting [2], the AC50 was 5.8 µM [falling, single point].
Turning to `COc1ccc(NC(=O)COC(=O)C23CC4CC(CC(Cl)(C4)C2)C3)c(OC)c1`, the cell number change was -21.5%. Moreover, the half-maximal activity concentration (AC50) under setting [1] was 29.1 µM [falling, single point].
Consider `Cc1nnc(SCC(=O)Nc2ccc3c(c2)OCO3)s1`, for which the cell number change was -2.42%.
For the molecule `O=C(N/N=C/c1cccc(F)c1)c1cc(-c2ccco2)nc2ccccc12`, the cell number change was -21.7%.
On to `CCn1c(=O)n(Cc2ccco2)c(=N)c2c3c(sc21)COC(C)(C)C3`, for which the AC50 under setting [1] was 16.4 µM [rising, partial curve, poor fit].
On to `COc1cc2cc3c(N)c(C(=O)Nc4sc(C)c(C)c4C#N)sc3nc2cc1OC`, for which the cell number change is -54.8%. Also, the AC50 under setting [2] was 13 µM [falling, partial curve]. In addition, the AC50 under setting [1] is 13 µM [falling, partial curve].
For `O=C(NCc1ccco1)c1cccc(F)c1`, the cell number change was -28.5%. Also, under setting [2], the concentration at half-maximal activity (AC50) was 1.64 µM [falling, full curve, poor fit]. In addition, under setting [1], the AC50 is 2.91 µM [falling, partial curve, poor fit].
Regarding `COC(=O)c1[nH]c2c(c1C)C(=O)CC(c1cccs1)C2` (stereo not drawn), the cell number change is -1.83%. Also, under setting [1], the AC50 was 1.16 µM [rising, full curve].
Consider `Cc1nc(SCC(=O)NCc2cccs2)nc(C)c1C`, for which the cell number change came to 17.2%. Moreover, the AC50 under setting [1] is 0.411 µM [rising, partial curve, poor fit].
For `CCc1nnc(NC(=O)c2csc3c2CCC(C)C3)s1` (stereo not drawn), the cell number change is -4.5%. Moreover, under setting [1], the AC50 is 0.082 µM [falling, full curve].
As for `Cc1cccc(C(=O)NNC(=O)c2c(-c3ccccc3Cl)noc2C)c1O`, the cell number change is -24.4%. In addition, the AC50 under setting [1] was 5.17 µM [falling, single point].
Regarding `CCc1ccc(CNc2ccc3c(c2)ncn3C(C)(C)C)cc1`, the cell number change is -11.8%.
With `COc1ccc(CC(=O)Oc2ccc(C(C)C)cc2)cc1S(=O)(=O)N1CCOCC1`, the cell number change was -15.7%. Besides, the AC50 under setting [1] is 0.0146 µM [falling, full curve, poor fit].
